Laboratory results taken from patent US20170042969A1.
These are yes or no findings as the source states them, for the method shown. For part of these data: In cells and extracts the contact can be indirect. Some results given as binding are weak or reduced against the parent protein; the word gives no strength.

Legend:
[1] = molecular target: T1, ornithine decarboxylase (ODC) (UniProt P11926); test: two-hybrid screening and immunocoprecipitation
T1 sequence (looked up): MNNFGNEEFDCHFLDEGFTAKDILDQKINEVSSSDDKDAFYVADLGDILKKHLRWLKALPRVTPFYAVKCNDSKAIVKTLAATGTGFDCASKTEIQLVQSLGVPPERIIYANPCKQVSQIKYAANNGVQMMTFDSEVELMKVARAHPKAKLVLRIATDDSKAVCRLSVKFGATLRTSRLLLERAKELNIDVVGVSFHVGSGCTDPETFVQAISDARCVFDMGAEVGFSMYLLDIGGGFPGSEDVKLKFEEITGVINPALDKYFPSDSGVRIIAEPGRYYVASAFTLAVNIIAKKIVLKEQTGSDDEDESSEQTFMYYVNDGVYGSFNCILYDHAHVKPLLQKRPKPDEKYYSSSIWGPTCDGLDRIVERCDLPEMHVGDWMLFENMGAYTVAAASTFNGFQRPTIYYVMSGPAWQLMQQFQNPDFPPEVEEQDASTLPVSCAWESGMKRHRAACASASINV

[2] = molecular target: T1, ornithine decarboxylase (ODC); test: two-hybrid screening, immunoprecipitation and functional studies
[3] = molecular target: T1, ornithine decarboxylase (ODC); test: functional studies in oocytes, HEK293 cells and with purified ODC

Measured: binding

B1: hRS1-Reg (regulatory domain of human RS1, amino acids 16-98 of hRS1), wildtype (protein, not shown: small tags and cut ends)
chain: SSGQSPDVGNPMSLARSVSASVCPIKPSDSDRIEPKAVKALKASAEFQLNSEKKEHLSLQDLSDHASSADHAPTDQSPAMPMQ
binds: [1] | [2] | [3]
